# Reference: PubChem BioAssay AID1347423 (Functional Genomics Laboratory (NCATS/FGL), 2020)
# The whole screen tested about 52,000 sequences, of which about 210 (0.4%) were called active.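 How the source made its calls: active means gene whose silencing raises cell survival under the drug, median off-target-corrected z-score across its silencing RNAs 2 or more; inactive means the rest.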 The list shows a part of the results.
# Assay: Resistance to Poly (ADP-Ribose) Polymerase inhibitor: Gene Identification via Genome-wide siRNA Screen
# Conditions: mouse BRCA2 R2336H ES cells, olaparib, CellTiter-Glo viability; hits give high values
# Procedure, shortened: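 Genome-wide siRNA screen (3 siRNAs/gene, 20 nM) in mouse ES cells carrying hypomorphic BRCA2 R2336H; olaparib 500 nM added 48 h post-transfection, CellTiter-Glo viability 72 h later. Normalized to plate-median negative control; MAD z-scores, gene median, seed-adjusted.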
row,Sequence,z-score
1,GCACCAGUCGGUAUUCACATT against C1qg,inactive: -0.301
2,GGAAACAUGGCCAUGUUUUTT against Cyp7a1,inactive: -0.537
3,GGAAAAGAUCUCGUGGUUGTT against Slc25a17,inactive: -0.0183
4,GGAACCCUUGGUUUUUUUUTT against Oas1a,inactive: 1.68
5,GCAACCAUUCAAACAUUUGTT against D630047F21Rik,inactive: 0.437
6,GGAUCAACAAGGAACUGGCTT against Ap2a1,inactive: 3.82
7,GGAUGAAAAGAUUGAACUCTT against Gart,inactive: -0.451
8,CCAGCAAAAUCACUUAAUATT against Emb,inactive: -0.588
9,GGAAGAAGGCAUUGUGAAGTT against Rps6ka2,inactive: 0.785
10,CCAUGCGGCUUGUAAUAUGTT against AU022252,inactive: -1.63
11,CCUCCACCGAAAUAAUUAATT against Dnajb3,inactive: -0.0241
12,CCUAAUACCUUCAGUGUUCTT against 2810422B04Rik,inactive: 2.12
13,GCCGUCAUCACUGAAUUCATT against Olfr242,inactive: -0.964
14,GGGAGAUGAUAAUUAAGUUTT against C130079G13Rik,inactive: -0.563
15,GGGCUGUUUUUACAAAACATT against AW121567,inactive: 1.45
16,GGUGCUUCUGAGCAAGAAUTT against Adra2b,inactive: -2.26
17,GCUUCUGUUCGUUACGUCCTT against Ndufc2,inactive: 0.012
18,GGACCUGGUGGAGAACAAGTT against Kcnj12,inactive: 0.289
19,GCACAAUUAGACUUCUUCCTT against Vat1,inactive: 1.67
20,GGCAAAAUGAAUGAGGAAATT against Es1,inactive: -0.733
21,GGUCAUCGAGACUCAGGAUTT against Ihh,inactive: -0.547
22,CCACUUGUACGCACUCAAGTT against Ang4,inactive: 1.32
23,GGGAUGAGUUCUCCUACCATT against Srm,inactive: 0.914
24,CCCAGAAGACCCGAACUUUTT against E130006D01Rik,inactive: 0.351
25,GCAGUGCAGUGGAUCAAAUTT against Arts1,inactive: 0.903
26,GGUGCUGAUGGAGAACUUCTT against Ruvbl1,inactive: -2.63
27,GCCUCCUUUAUGUAGCUUATT against Cdca3,inactive: -0.536
28,GGAAGACUUUGCUUAUUGGTT against Ocsp,inactive: 0.0152
29,GGAGAGUUGCCUCAAACAUTT against Ubadc1,inactive: 1.42

# Quoted at random: 2 entries already listed.
row,Sequence,z-score
13,GCCGUCAUCACUGAAUUCATT against Olfr242,inactive: -0.964
15,GGGCUGUUUUUACAAAACATT against AW121567,inactive: 1.45
